These are yes or no findings as the source states them, for the method shown. A result given as binding can be weak or reduced; the word gives no strength. Where a sequence is shown, tags or fusion partners need not be part of it.
Molecular target: T1, SQUAMOSA PROMOTER BINDING PROTEIN LIKE 9 (SPL9), yeast two-hybrid fusion (Arabidopsis thaliana) (UniProt Q700W2)
T1 sequence: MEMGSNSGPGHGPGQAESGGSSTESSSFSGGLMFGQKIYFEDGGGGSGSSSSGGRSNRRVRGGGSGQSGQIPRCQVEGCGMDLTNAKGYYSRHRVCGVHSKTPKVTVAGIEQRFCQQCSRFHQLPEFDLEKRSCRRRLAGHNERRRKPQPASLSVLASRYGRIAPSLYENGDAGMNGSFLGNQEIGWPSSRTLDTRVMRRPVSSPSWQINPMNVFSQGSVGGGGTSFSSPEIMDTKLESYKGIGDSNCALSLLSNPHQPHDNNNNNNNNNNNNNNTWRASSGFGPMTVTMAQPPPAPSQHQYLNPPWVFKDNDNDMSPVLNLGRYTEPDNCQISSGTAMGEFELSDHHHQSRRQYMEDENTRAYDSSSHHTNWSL
Assay: two-hybrid; Matchmaker GAL4 Two-Hybrid System, yeast strain AH109, growth on SD/-Leu/-Trp/-His with 15 mM 3-amino-1,2,4-triazole; three independent clones for each transformation

Chains of the proteins cited; added tags and fusions are not shown. Lines headed by an entry give the natural chain unless they say otherwise; changes in a name come on top.
UniProt Q7XJM8: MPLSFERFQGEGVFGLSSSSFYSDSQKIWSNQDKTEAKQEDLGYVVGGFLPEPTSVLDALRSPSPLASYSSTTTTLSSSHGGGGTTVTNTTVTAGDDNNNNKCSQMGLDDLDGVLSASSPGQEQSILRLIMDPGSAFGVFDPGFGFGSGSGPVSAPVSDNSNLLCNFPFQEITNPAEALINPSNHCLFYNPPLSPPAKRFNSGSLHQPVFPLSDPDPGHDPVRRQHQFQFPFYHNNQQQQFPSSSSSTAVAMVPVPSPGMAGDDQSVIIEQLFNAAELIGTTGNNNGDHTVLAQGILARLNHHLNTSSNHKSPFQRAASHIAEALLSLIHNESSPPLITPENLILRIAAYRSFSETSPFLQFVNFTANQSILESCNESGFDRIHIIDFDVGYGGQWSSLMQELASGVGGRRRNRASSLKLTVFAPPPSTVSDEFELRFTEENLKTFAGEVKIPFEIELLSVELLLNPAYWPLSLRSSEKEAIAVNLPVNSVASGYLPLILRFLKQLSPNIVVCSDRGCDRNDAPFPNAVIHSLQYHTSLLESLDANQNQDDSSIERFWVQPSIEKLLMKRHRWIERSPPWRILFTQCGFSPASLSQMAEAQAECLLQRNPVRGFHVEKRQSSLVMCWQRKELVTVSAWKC

- binding: binds
Substance: N-terminal (1-250) of LOM1, yeast two-hybrid fusion (from UniProt Q7XJM8) (domain or fragment)

From publication PMC3974651
